Experimental data from PubChem BioAssay AID743266 (National Center for Advancing Translational Sciences (NCATS), 2014).
The whole screen tested about 410,000 compounds, of which about 310 (0.076%) were called active. The inconclusive results got no clear call from the source; some entries with a clear call stand among them for comparison. Calls follow the shape of the dose curve; as a rule, active = well fitted activation curve with a large enough effect; inconclusive = small, poorly fitted or top-dose-only effect, or another doubt; inactive = no such curve, though single readings can be large or run the other way. Potencies of inconclusive entries are doubtful fits and often do not repeat.

By UniProt entry, the sequences of proteins in these tests, tags left out. Where a name states a change or a piece, a line headed by the entry shows the natural chain unless it says otherwise.
UniProt Q03431: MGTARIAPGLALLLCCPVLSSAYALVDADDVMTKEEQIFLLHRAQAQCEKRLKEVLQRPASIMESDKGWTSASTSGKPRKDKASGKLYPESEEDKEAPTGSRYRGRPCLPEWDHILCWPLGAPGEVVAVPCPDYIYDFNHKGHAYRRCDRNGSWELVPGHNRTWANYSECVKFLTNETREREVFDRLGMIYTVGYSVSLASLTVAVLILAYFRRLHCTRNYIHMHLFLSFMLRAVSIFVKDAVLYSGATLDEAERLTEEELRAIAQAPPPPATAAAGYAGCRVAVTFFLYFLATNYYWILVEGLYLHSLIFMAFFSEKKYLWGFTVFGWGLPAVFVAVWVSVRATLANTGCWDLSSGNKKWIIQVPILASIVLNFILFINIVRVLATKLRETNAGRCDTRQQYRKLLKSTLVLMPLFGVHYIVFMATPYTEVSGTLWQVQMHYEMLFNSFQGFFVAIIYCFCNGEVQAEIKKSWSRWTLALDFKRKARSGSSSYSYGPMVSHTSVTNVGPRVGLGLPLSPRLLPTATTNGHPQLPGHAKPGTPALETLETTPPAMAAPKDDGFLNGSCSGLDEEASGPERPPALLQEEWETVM

Molecular target: Parathyroid hormone/parathyroid hormone-related peptide receptor (Homo sapiens) (UniProt Q03431)
Assay: qHTS for PTHR1 Agonists: Primary Screen; also: nearly all actives have a fitted effect of over 55% in size
Conditions: HEK293 GP2 PTHR1 cells, GloSensor cAMP luminescence, 1 h; activation: at 115 µM (top of the series) unless noted; series mostly up to 115 µM
Text: The goal of the proposed studies is to discover new compounds that act as potent agonists on the parathyroid hormone receptor type-1 (PTHR1). The PTHR1 plays critical roles in maintaining blood calcium and phosphate levels, as well as in controlling bone remodeling. PTHR1 agonists could thus be useful for treating diseases such as hypoparathyroidism and osteoporosis. In the former disease, an agonist drug would help maintain normal blood calcium and phosphate levels under conditions of parathyroid hormone deficiency. In the latter disease, an agonist drug would stimulate new bone formation and thus reduce the risk of fracture, under conditions of bone fragility, as occurs in aging.
To that end, we performed a quantitative high-throughput screening (qHTS) of the Molecular Libraries Probe Centers Network (MLPCN) compound libraries at the NIH Chemical Genomics Center (NCGC) for the parathyroid hormone receptor type-1 (PTHR1) using a unique HEK-293-derived cell line (GP2) that expresses the PTHR1 and a glosensor cAMP reporter construct.
NIH Molecular Libraries Probe Production Centers Network [MLPCN]
NIH Chemical Genomics Center [NCGC]
Assay Submitter (PI): Thomas Gardella, Massachusetts General Hospital
4 microL are dispensed into a 1536-well micro plate to yield 3,000 cells/well. The plates are then incubated overnight, after which 4 microL of 0.5 mM of BIoTium Luciferin plus 0.5 mM IBMX are added. They are then incubated at 37 degree for one hour before 23 nL of compounds are added through pinning and then incubated at 37 degree again for another hour. After the plates are kept at room temperature for 15 min before they are read on the ViewLux to measure luminescence.
Potency is read from the fitted curve at half-maximal effect.

activation, inconclusive:
O=C1CCCN1c1ccc(S(=O)(=O)NCCOc2ccccc2)cc1 -78.3% [activator]
CC(=O)c1n[nH]nc1NC(=O)c1ccccc1 620% [activator] [at 57.5 µM]
COc1ccc(CCN(C)C2CCCN(C(=O)Cn3cccn3)C2)cc1OC (stereo not drawn) 67.8% [activator]
COC(=O)c1ccccc1NS(=O)(=O)c1ccc(NC(C)=O)cc1 -80.3% [activator]
O=C(CNc1cccc(S(=O)(=O)N2CCCCC2)c1)Nc1cccc(F)c1 -33.5% [activator]
CCCCOc1ccc(C(=O)NCCCC(=O)N2CCCCC2)cc1 58.2% [activator]
CCOC(=O)CSc1nc2sc3c(c2c(=O)n1-c1ccc(C)cc1)CCN(C)C3 30.9% [activator]
O=C(CCC(=O)Nc1ccccc1Cl)NNC(=O)NC1CCCCC1 -4.09% [activator]
COc1ccc(OC)c(S(=O)(=O)N2CCC(C(=O)NC3CCCCCC3)CC2)c1 -32.6% [activator]

Potency, inconclusive:
Cc1ccc(CN2C(=O)CCC2C(=O)NCCCN2CCC(C)CC2)cc1 (stereo not drawn) 56.2 µM [activator, partial curve, poor fit]
CN(Cc1ccco1)c1ncnc2ccc(-c3ccc4c(ccn4C)c3)cc12 89.1 µM [activator, single point]
CCCCNCc1cc(Br)c(OCc2cccs2)c(OC)c1 44.7 µM [activator, single point]
Cc1ncc(CO)c2c1Oc1nc(-c3ccccc3F)nc(SCC(=O)N3CCCCC3)c1C2 126 µM [activator, single point]
CCOc1cc(C(=O)Nc2c(NC)c3ccccc3oc2=O)cc(OCC)c1OCC 141 µM [activator, single point]
Cc1ccc(C)c(CN2C(=O)c3ccccc3Sc3ccc(C(=O)NC4CCCC4)cc32)c1 141 µM [activator, single point]
CCn1cc(C(=O)NCCc2ccc(OC)c(OC)c2)c(=O)c2cc(S(=O)(=O)N3CCc4ccccc4C3)ccc21 79.4 µM [activator, partial curve, poor fit]
COc1ccc(-c2nc(CN3CCC(C(=O)NCCN(CC(C)C)CC(C)C)CC3)c(C)o2)cc1OC 15.8 µM [activator, partial curve]
O=C(NCc1ccc2c(c1)CCN2C(=O)c1ccncc1)c1cccc(Cl)c1 141 µM [activator, single point]
O=C(Nc1ccc(Cl)cc1)N(Cc1nnc2n1CCCCC2)c1ccccc1 39.8 µM [activator, single point]
CCc1c(C(=O)N2CCCN(C)CC2)csc1C 158 µM [activator, partial curve, poor fit]
Cc1noc(C)c1CSc1nc2ccccc2n1CCc1ccccc1 35.5 µM [activator, single point]
Cc1ccc(C)c(-n2c(SCC(=O)NC(C(=O)O)C(C)C)nnc2-c2cccc(Cl)c2)c1 (stereo not drawn) 141 µM [activator, single point]
O=C(NC1CC1)C1CC(=O)N(c2cccc(Cl)c2Cl)C1 (stereo not drawn) 158 µM [activator, single point]
CCOn1c(=O)c(C)[n+]([O-])c2ccccc21 50.1 µM [activator, single point]
O=C(CCN1C(=O)[C@H]2CC=CC[C@H]2C1=O)NCc1nc(-c2ccccc2)no1 14.1 µM [activator, partial curve, poor fit]
CCOC(=O)N1CCc2c(sc3c2c(=O)n(Cc2ccccc2)c(=O)n3CC(=O)Nc2c(C)cccc2C)C1 50.1 µM [activator, partial curve, poor fit]
CC1=CC(=C(C#N)c2nc3ccccc3s2)C=C(C)N1Cc1ccco1 2.82 µM [activator, partial curve]
Cc1cccc(NC(=O)Cn2nc(-c3ccc(Cl)cc3)c3ccccc3c2=O)c1 50.1 µM [activator, partial curve]
O=C(CSc1n[nH]c(=O)[nH]c1=O)N1CCCCCC1 141 µM [activator, single point]
Cc1cccc(NC(=O)N2CCC(CN3CCOCC3)CC2)c1C 100 µM [activator, partial curve, poor fit]
O=C(Nc1ccc2c(c1)C(=O)N(CC1CCCO1)C2=O)c1ccc(Cl)c(Cl)c1 (stereo not drawn) 2.51 µM [activator, partial curve, poor fit]
Cc1nn(C)c(Cl)c1CN1CCCC(CO)(Cc2ccccc2)C1 (stereo not drawn) 31.6 µM [activator, partial curve, poor fit]

Three entries drawn at random from the list so far, as already listed:
Potency, inconclusive:
O=C(Nc1ccc(Cl)cc1)N(Cc1nnc2n1CCCCC2)c1ccccc1 39.8 µM [activator, single point]
CN(Cc1ccco1)c1ncnc2ccc(-c3ccc4c(ccn4C)c3)cc12 89.1 µM [activator, single point]
Cc1ccc(CN2C(=O)CCC2C(=O)NCCCN2CCC(C)CC2)cc1 (stereo not drawn) 56.2 µM [activator, partial curve, poor fit]

Next part.

Potency, inactive:
COC(=O)C(CC(C)C)Oc1ccc2c(C)cc(=O)oc2c1 (stereo not drawn)
O=C(OCc1cn([C@H]2C[C@H](c3ccc(Cl)cc3)N(C(=O)C3CCCCC3)C[C@@H]2O)nn1)c1ccccc1
Cc1cc(C)c(NC(=O)COC(=O)Cc2cccs2)c(C)c1
Cc1ccc(NC(=O)c2cccc(NC(=O)N3CCSc4ncccc43)c2)cc1Cl
CC(C)NC(=O)c1ccc(CSCc2ccccc2Cl)o1
CCCCc1nc2ccccc2c(NC(=O)CNC(C)(C)C)c1CCC
Brc1ccc(-c2ccc(CNCCSc3nnnn3-c3ccccc3)o2)cc1
CCCCCCc1cc2cc(/C(N)=N/NC(=O)c3ccncc3)c(=O)oc2cc1O
CN1C(=O)/C(=C/c2ccc(OCc3ccc(F)cc3)cc2)N(C)C1=S
CC(C)CN(C(=O)C1=COCCO1)c1c(N)n(Cc2ccccc2)c(=O)[nH]c1=O
CN(C)c1ccc(/C=N/Nc2nc3ccccc3o2)cc1
